This note sets out measurements from PMC7819943, “Rice protein-binding microarrays: a tool to detect cis-acting elements near promoter regions in rice”.

The list shows a part of the results.

The test has as its target T1, OsSMF1 (Oryza sativa, UniProt Q6ZLB0 1-436).
T1 sequence: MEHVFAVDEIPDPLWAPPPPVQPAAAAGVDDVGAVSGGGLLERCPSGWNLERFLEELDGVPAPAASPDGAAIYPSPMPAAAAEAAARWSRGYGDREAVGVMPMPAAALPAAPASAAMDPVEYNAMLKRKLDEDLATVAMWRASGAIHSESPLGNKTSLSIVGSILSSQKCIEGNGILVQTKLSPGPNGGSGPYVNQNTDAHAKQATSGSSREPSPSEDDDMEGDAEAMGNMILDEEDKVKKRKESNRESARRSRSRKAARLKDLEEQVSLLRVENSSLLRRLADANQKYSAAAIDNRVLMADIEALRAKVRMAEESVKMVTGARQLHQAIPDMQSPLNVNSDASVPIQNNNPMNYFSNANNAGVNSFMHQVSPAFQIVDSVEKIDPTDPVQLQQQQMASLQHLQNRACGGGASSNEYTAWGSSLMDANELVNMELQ
The test is described as follows: protein-binding microarray (RPBM); PBS, 2% BSA, 51.3 ng/ul salmon testes DNA, 50 uM zinc acetate, 200 nM TF, 25 C, 1 h; high values mean tight binding. Particulars: protein: recombinant; tags: N-terminal polyhistidine and DsRed monomer fusion (pET32a); chain copies: 2; label: CyDye5-dUTP incorporated in the synthesized complementary strand; 3' TTTTT single-stranded linker to array surface; dsDNA, one strand shown. In a few lines: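 Transcription factors, each fused N-terminally to a polyhistidine tag and DsRed, were expressed in E. coli BL21-CodonPlus and purified on Ni–NTA. A custom Agilent array was made double-stranded by primer extension with Cy5-dUTP and blocked with 2% BSA. It was incubated with 200 nM protein in PBS, 2% BSA, salmon testes DNA and 50 µM zinc acetate at 25 °C for 1 h, then washed. The binding signal is per-feature fluorescence intensity (arbitrary units) read on an Axon 4000B scanner.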
Consider “ATTACTTACTTTGATTCAATTCCACATTATTTAAATTATCCGGAGTCACCTAGTGCAG”, for which the binding signal was 21900 fluorescence intensity (a.u.).

Consider “CTCGATCGAGCCCATCCACGTGCCGACTGCCCACGAGTCACGGAGTCACCTAGTGCAG”, for which the binding signal was 3500 fluorescence intensity (a.u.).

As to “AGCTCAAGCTCGGACTCTGCCCGCCGCTTCGCCATGACATCGGAGTCACCTAGTGCAG”, the binding signal is 15500 fluorescence intensity (a.u.).

Consider “AGTACTGATCATGACATTACTTACCAATAATCAACTGTATCGGAGTCACCTAGTGCAG”, for which the binding signal is 3430 fluorescence intensity (a.u.).

For the sequence “AACAGCGACAGTGCTCAACTGCCAGTGCCAGACCAGGACACGGAGTCACCTAGTGCAG”, the binding signal was 17700 fluorescence intensity (a.u.).

Turning to “TTAGCACCACGCCTCGATGACACATTGGCACCGATGGGCACGGAGTCACCTAGTGCAG”, the binding signal is 4380 fluorescence intensity (a.u.).

Regarding “TATTTTGTAGGAGCACTGCTACACGTACTAAATTTCTTACCGGAGTCACCTAGTGCAG”, the binding signal was 3210 fluorescence intensity (a.u.).

As to “CACCATCTCTATATGCAAGATTGGACGCGTGGCATCTCCTCGGAGTCACCTAGTGCAG”, the binding signal was 9460 fluorescence intensity (a.u.).

As to “CGCCCACCCACCTCCGCACCCACGTGGCCACGCCCTCCTACGGAGTCACCTAGTGCAG”, the binding signal is 13600 fluorescence intensity (a.u.).

With “CCCTTAAACCTCCGTGTCTTCCTCGTGTTAACTCCTCCACCGGAGTCACCTAGTGCAG”, the binding signal is 3750 fluorescence intensity (a.u.).

With “AATTTGTCCCAATTATTAAGTCGCAGATCTCCGCGAGGAACGGAGTCACCTAGTGCAG”, the binding signal was 3700 fluorescence intensity (a.u.).

As for “ATATTTAAGGCGTTATATCACAACTACAGATTTAATACCACGGAGTCACCTAGTGCAG”, the binding signal was 3420 fluorescence intensity (a.u.).

“GCTAAGCACACACACACACTGCATCAGTACCTTGGTTTGGCGGAGTCACCTAGTGCAG”: the binding signal was 3200 fluorescence intensity (a.u.).

On to “CGAGACCGACTGATGCTACAACTTCTGTCCTTGCTCCGGCCGGAGTCACCTAGTGCAG”, for which the binding signal was 3180 fluorescence intensity (a.u.).

Turning to “CCACCGCCAGTCCGCCACCTCCACCTCCACCTCCACCCGACGGAGTCACCTAGTGCAG”, the binding signal is 3450 fluorescence intensity (a.u.).

Take “AAATTACTCTATGATGATCTGTCTTCTGTTGCAGTTATCACGGAGTCACCTAGTGCAG”: the binding signal was 3180 fluorescence intensity (a.u.).

Regarding “ACCGGCCGTGCCCACCAACACGCATGCAGATTGCAGACGACGGAGTCACCTAGTGCAG”, the binding signal is 17200 fluorescence intensity (a.u.).

For “CAGGTGTGATTGTCATGCCCCAGAGGATGTGCCTGAGTCACGGAGTCACCTAGTGCAG”, the binding signal was 5890 fluorescence intensity (a.u.).

For the sequence “GTCGGTCCTGACCCACACGTTCTCCCGCCCAATTTCCTCGCGGAGTCACCTAGTGCAG”, the binding signal was 3190 fluorescence intensity (a.u.).

Regarding “GCTGCCACTTCACAAGCAACTTAACTCGACAGCCAACAATCGGAGTCACCTAGTGCAG”, the binding signal was 23500 fluorescence intensity (a.u.).

As for “CAAATAAAACAAACCAACAATTGTTGATTTGTACCCAGTGCGGAGTCACCTAGTGCAG”, the binding signal was 3320 fluorescence intensity (a.u.).

For the sequence “TGAACTGCATGGCCTCCCCGAGCTCCGCCACTTCACGTGCCGGAGTCACCTAGTGCAG”, the binding signal is 3880 fluorescence intensity (a.u.).

Regarding “CGGGTTGGGAATTGGAATTTGCATCTATCTGCCATAGAAGCGGAGTCACCTAGTGCAG”, the binding signal is 3210 fluorescence intensity (a.u.).

Regarding “GTGAGATAGATCAATATGTGTGATGTGTTGCTTTACAATCCGGAGTCACCTAGTGCAG”, the binding signal was 4460 fluorescence intensity (a.u.).

Take “CCTCGCCTTGCCTCGCTGCGTCACCAACCTTGACGGCGACCGGAGTCACCTAGTGCAG”: the binding signal is 4660 fluorescence intensity (a.u.).

As for “TCAGAATGCGTGTGATGTAAAAGTTCGAGAAGACTTTGTTCGGAGTCACCTAGTGCAG”, the binding signal was 3210 fluorescence intensity (a.u.).

For the sequence “TTGGATAGGTAGGAACGGATCATCTCATTCCATCCACGTCCGGAGTCACCTAGTGCAG”, the binding signal was 3390 fluorescence intensity (a.u.).

For “TTGTGATCAATTCGTCAAATTTGTAATTACTTCATCCTGACGGAGTCACCTAGTGCAG”, the binding signal was 3650 fluorescence intensity (a.u.).

“TCAAGTAGCTAATAATGTGGTTCTGTCATTTGTAGTTTTGCGGAGTCACCTAGTGCAG”: the binding signal is 3570 fluorescence intensity (a.u.).

Turning to “CCGCCTGACACGTGTAAGAGCAAGTTTAATAGTATAGCCCCGGAGTCACCTAGTGCAG”, the binding signal is 13800 fluorescence intensity (a.u.).

Regarding “CCGTCGTCTTCACCTTCGCCACCGTCACCGCCGCCGCCGCCGGAGTCACCTAGTGCAG”, the binding signal is 4440 fluorescence intensity (a.u.).

As to “AAACGATAATATACCTTGTATAGTCATCCAACTCTTATTTCGGAGTCACCTAGTGCAG”, the binding signal is 3630 fluorescence intensity (a.u.).

Regarding “GCTTCCAATGCCACGCCGAGGAACCTCATATGTACCAGTTCGGAGTCACCTAGTGCAG”, the binding signal was 3430 fluorescence intensity (a.u.).

For “CTCCACGGATCCGCGCTCAGGCCACGTCGACACGGTCCCCCGGAGTCACCTAGTGCAG”, the binding signal is 9080 fluorescence intensity (a.u.).

Regarding “ATACACACTACATATATGAATGATTCAGTATGCATCCGTCCGGAGTCACCTAGTGCAG”, the binding signal is 21600 fluorescence intensity (a.u.).

For the sequence “CGTGGGTCGTGGTGATGACATCTTGTATTCCTTTTCACTACGGAGTCACCTAGTGCAG”, the binding signal is 4700 fluorescence intensity (a.u.).

“CGCACTTCCGTCGCCTCCCCGCATCGCGTCGTACAACGGGCGGAGTCACCTAGTGCAG”: the binding signal is 18300 fluorescence intensity (a.u.).

On to “TTATTTGGTGCGTGCGTACAAGACCAAAACCGTACGACAACGGAGTCACCTAGTGCAG”, for which the binding signal was 18600 fluorescence intensity (a.u.).

On to “TAGTAGTAGTCTACTATATCCGCAGCGTGAGTGCGTGACGCGGAGTCACCTAGTGCAG”, for which the binding signal was 4280 fluorescence intensity (a.u.).

With “TAGTAGTAGAAGGACTTGAGTTGGCCAACTATCCGGTAATCGGAGTCACCTAGTGCAG”, the binding signal was 4360 fluorescence intensity (a.u.).

As to “GCCATGACCATGTTCTCTTCTCCGTGGTAGGAGTATACTGCGGAGTCACCTAGTGCAG”, the binding signal is 3420 fluorescence intensity (a.u.).

Regarding “CCATGGCCACACAACAAAGAACTCAAGAAGCAATTAACATCGGAGTCACCTAGTGCAG”, the binding signal is 17500 fluorescence intensity (a.u.).
